Results deposited as PubChem BioAssay AID504764 (Drosophila RNAi Screening Center, 2011)
Purpose: 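Genome-wide screen for regulators of Notch-driven gene expression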 (primary screen). Cells: Drosophila Kc167 cells. Reagents: long dsRNA against Drosophila genes. Timing: about 5 days (4 days dsRNA, then 24 h after transfection). Conditions: transfection of constitutively active membrane-tethered Notch lacking the extracellular domain, read 24 h later. Detection: 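Light from a Notch-responsive E(spl)m3 luciferase reporter under active Notch, with control-promoter and no-Notch reporter wells to normalise; raw counts from paired wells a and b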. Direction: induced reporter light, run 1, well a and induced reporter light, run 1, well b: higher = more light from the Notch target reporter with active Notch; control promoter light, run 1, well a and control promoter light, run 1, well b: higher = more light from the viral control promoter (cell number, transfection, viability); uninduced reporter light, run 1, well a: higher = more light from the Notch target reporter without active Notch. Active means: 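Hit if the duplicate-averaged log2 ratio of induced to control-promoter light gives a plate-wise z beyond ±2, or induced to uninduced beyond ±1.8; weak-control or discordant-duplicate wells dropped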. Calls: active = modifier hit (raised or lowered Notch signal); inactive = not a hit.
The deposit covers about 22,000 reagents; this is a random part of those with a known target gene and a result. Over the whole deposit, 403 (1.9%) were called active. 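Unnormalised raw counts per well; ratio z-scores behind the hit calls and whether each hit raises or lowers signal are not deposited.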 Not given: the amount of reagent.

The opening 3 records, ahead of the listing:
| gene | PubChem SID | induced reporter light, run 1, well a | induced reporter light, run 1, well b | control promoter light, run 1, well a | control promoter light, run 1, well b | uninduced reporter light, run 1, well a | Outcome |
| --- | --- | --- | --- | --- | --- | --- | --- |
| Plekhm1 (Pleckstrin homology and RUN domain containing M1) | SID104184319 | 40285 | 33995 | 40530 | 43255 | 1735 | inactive |
| wkd (whacked) | SID104195569 | 86525 | 88350 | 84140 | 66105 | 5500 | inactive |
| CG16972 | SID104182342 | 2.98e5 | 2.75e5 | 2.92e5 | 2.33e5 | 20538 | inactive |

Results, from the start:
| gene | PubChem SID | induced reporter light, run 1, well a | induced reporter light, run 1, well b | control promoter light, run 1, well a | control promoter light, run 1, well b | uninduced reporter light, run 1, well a | Outcome |
| --- | --- | --- | --- | --- | --- | --- | --- |
| Plekhm1 (Pleckstrin homology and RUN domain containing M1) | SID104184319 | 40285 | 33995 | 40530 | 43255 | 1735 | inactive |
| wkd (whacked) | SID104195569 | 86525 | 88350 | 84140 | 66105 | 5500 | inactive |
| CG16972 | SID104182342 | 2.98e5 | 2.75e5 | 2.92e5 | 2.33e5 | 20538 | inactive |
| Pde9 (Phosphodiesterase 9) | SID104199538 | 1.07e5 | 84805 | 1.24e5 | 1.27e5 | 7420 | inactive |
| Pde9 (Phosphodiesterase 9) | SID104199666 | 97240 | 1.12e5 | 2.03e5 | 1.89e5 | 7820 | inactive |
| Pde9 (Phosphodiesterase 9) | SID104199667 | 82840 | 1.00e5 | 1.03e5 | 1.15e5 | 6065 | inactive |
| Pde9 (Phosphodiesterase 9) | SID104199668 | 1.24e5 | 1.17e5 | 1.66e5 | 1.91e5 | 8165 | inactive |
| CG32214 | SID104189405 | 2.12e5 | 2.57e5 | 3.37e5 | 2.85e5 | 18130 | inactive |
| Gr39b (Gustatory receptor 39b) | SID104181640 | 58065 | 68335 | 65245 | 75020 | 7655 | inactive |
| CG5126 | SID104180472 | 1.43e5 | 1.54e5 | 1.18e5 | 1.20e5 | 10545 | inactive |
| CG3594 | SID104184185 | 1.76e5 | 1.82e5 | 1.34e5 | 1.47e5 | 13955 | inactive |
| CG3594 | SID104201571 | – | – | – | – | – | inactive |
| Obp49a (Odorant-binding protein 49a) | SID104201990 | – | – | – | – | – | inactive |
| CG11585 | SID104199202 | 72025 | 76995 | 93375 | 66125 | 11365 | inactive |
| Fer1HCH (Ferritin 1 heavy chain homologue) | SID104196463 | 1.24e5 | 1.74e5 | 1.93e5 | 1.74e5 | 8678 | inactive |
| Set1 (SET domain containing 1) | SID104200722 | 1.00e5 | 1.12e5 | 64405 | 89510 | 9395 | inactive |
| Set1 (SET domain containing 1) | SID104200723 | 87780 | 92870 | 80180 | 83795 | 9670 | inactive |
| VhaAC39-2 (Vacuolar H[+] ATPase AC39 subunit 2) | SID104195401 | 1.35e5 | 1.38e5 | 1.62e5 | 1.80e5 | 11925 | inactive |
| ap (apterous) | SID104184709 | 1.86e5 | 1.59e5 | 1.34e5 | 1.72e5 | 11845 | inactive |
| CG1674 | SID104196934 | 1.01e5 | 1.19e5 | 2.41e5 | 2.15e5 | 8710 | inactive |
| dpr19 (defective proboscis extension response 19) | SID104182029 | 1.24e5 | 1.48e5 | 91825 | 1.04e5 | 19670 | inactive |
| Vps28 (Vacuolar protein sorting 28) | SID104185960 | 94845 | 1.20e5 | 88555 | 73470 | 7625 | inactive |
| CG34406 (retired record) | SID104180315 | 1.82e5 | 1.90e5 | 1.40e5 | 1.72e5 | 15445 | inactive |
| CG34406 (retired record) | SID104180398 | 1.65e5 | 1.55e5 | 2.04e5 | 2.05e5 | 11555 | inactive |
| CG15564 | SID104194894 | 1.18e5 | 1.05e5 | 1.48e5 | 1.70e5 | 10520 | inactive |
| CG15365 | SID104197830 | 5615 | 5925 | 9170 | 10540 | 2455 | inactive |
| CG3402 | SID104188359 | 71865 | 85045 | 1.40e5 | 1.27e5 | 6405 | inactive |
| Wdr82 (WD repeat domain 82) | SID104182387 | 1.04e5 | 1.30e5 | 84930 | 1.14e5 | 7478 | inactive |
| FucTD (alpha1,3-fucosyltransferase D) | SID104188426 | 1.06e5 | 93455 | 1.38e5 | 1.20e5 | 3592 | inactive |
| scramb1 (scramblase 1) | SID104189516 | 1.60e5 | 75190 | 1.48e5 | 88680 | 8190 | inactive |
| scramb1 (scramblase 1) | SID104190459 | 96480 | 1.06e5 | 84780 | 80365 | 5885 | inactive |
| scramb1 (scramblase 1) | SID104190460 | 2.21e5 | 1.33e5 | 2.63e5 | 1.59e5 | 9920 | inactive |
| Prp18 | SID104196594 | 1.49e5 | 1.45e5 | 1.52e5 | 1.52e5 | 12025 | inactive |
| CG10237 | SID104181821 | 2.20e5 | 2.49e5 | 1.62e5 | 2.13e5 | 15945 | inactive |
| CG17739 | SID104186481 | 2.30e5 | 1.92e5 | 1.70e5 | 1.53e5 | 14665 | inactive |
| Actn (alpha actinin) | SID104197516 | 1.64e5 | 1.94e5 | 2.27e5 | 2.38e5 | 13390 | inactive |
| CG34167 | SID104181317 | 66500 | 63130 | 88525 | 79060 | 6980 | inactive |
| CG8642 | SID104187020 | 1.50e5 | 1.72e5 | 2.07e5 | 2.07e5 | 14120 | inactive |
| PGRP-LA (Peptidoglycan recognition protein LA) | SID104190119 | 2.04e5 | 1.57e5 | 3.34e5 | 3.12e5 | 12905 | inactive |
| PGRP-LA (Peptidoglycan recognition protein LA) | SID104190206 | 1.88e5 | 1.42e5 | 2.71e5 | 2.09e5 | 10910 | inactive |
| bs (blistered) | SID104184468 | 2.07e5 | 2.12e5 | 1.96e5 | 1.89e5 | 15110 | inactive |
| CG15019 | SID104188265 | 2.12e5 | 1.99e5 | 2.54e5 | 2.98e5 | 7645 | inactive |
| l(2)dtl (lethal-(2)-denticleless) | SID104184489 | 1.56e5 | 1.83e5 | 1.42e5 | 1.75e5 | 15865 | inactive |
| CG1637 | SID104198657 | 76315 | 76655 | 81810 | 70260 | 5060 | inactive |
| CG1637 | SID104199540 | 1.84e5 | 1.29e5 | 2.19e5 | 2.07e5 | 11380 | inactive |
| CG1637 | SID104199541 | 1.18e5 | 1.23e5 | 2.45e5 | 2.04e5 | 8610 | inactive |
| alpha-Est5 (alpha-Esterase-5) | SID104192409 | 1.53e5 | 1.13e5 | 1.01e5 | 1.01e5 | 11695 | inactive |
| CG14971 | SID104188222 | 98265 | 1.18e5 | 77780 | 29960 | 8530 | inactive |
| bur (burgundy) | SID104182955 | 1.67e5 | 1.92e5 | 1.65e5 | 1.77e5 | 13940 | inactive |
| CG14506 | SID104194650 | 1.69e5 | 1.47e5 | 1.83e5 | 1.99e5 | 12150 | inactive |
